US20200069609A1 (WIGEN BIOMEDICINE TECHNOLOGY (SHANGHAI) CO., LTD., priority 2017, published 2020)
For at least one compound, name, drawing or mass did not settle the structure.

Target: T1, LC3B (1-125) (Homo sapiens, UniProt Q9GZQ8)
T1 construct: GST (N, cleaved yes); made in house
Test: Protein thermal shift assay
Format: binding
Conditions: Table 1; protein 4 μM, compound 40 μM
Protocol: GST-LC3B (1-125) (SEQ ID NO: 2) and each mutant protein were expressed by IPTG induction in DE3 competent cells at 16° C. After collecting and resuspending DE3 competent cells, the cells were sonicated and centrifuged. The resulted supernatant was hanged on the column (GSTrap FF, GE), followed by eluting with glutathione-containing eluant, and then the target protein was produced by gel filtration chromatography. This fusion protein was used directly in the fluorescence polarization assay. The proteins used in the protein thermal shift assay, mass spectrometry, and protein crystallization experiments were produced by PP enzyme or thrombin digestion and the following gel filtration chromatography to the GST-fusion protein obtained by the above method.
The protein thermal shift assay is used to test the effect of compounds on the thermodynamic stability of proteins via the Quant Studio 6 Flex Real-Time PCR system. Protein LC3B (1-125) (SEQ ID NO: 3) and each mutant protein (SEQ ID NO: 7-15) (final concentration 4 μM), environmentally sensitive dye (5×SYPRO orange, Invitrogen) and compound (final concentration 40 μM) were mixed in the buffer solution (50 mM HEPES pH 7.5, 1 mM DTT) to a total volume of 20 μL. […] Changes in fluorescence intensity were monitored and each melting temperature (Tm), represented by AT in the unit of ° C., was calculated by Protein Thermal Shift Software 1.1 (ABI).

SMILES	ΔT (melting temperature shift) [°C]
CCNC(=S)N1CCN(CCNC=C2C(=O)CC(c3ccccc3)CC2=O)CC1 (centres unmarked) [F, 5-phenyl-2-(((2-(4-(ethyl-aminothiocarbonyl)piperazin-1-yl)ethyl)amino)methylene) cyclohexane-1,3-dione]	10.51
Cc1ccc(C2CC(=O)C(=CNCCN3CCN(C(=O)C(C)C)CC3)C(=O)C2)cc1 (centres unmarked) [H]	10.21
